These results are taken from the supplement of paper PMC11732987, “Enantioselective OTUD7B fragment discovery through chemoproteomics screening and high-throughput optimisation” (Communications Chemistry, 2025).

Chains of the proteins cited; added tags and fusions are not shown. Lines headed by an entry give the natural chain unless they say otherwise; changes in a name come on top. Residues count along the entry.
UniProt Q99523, whole entry, looked up: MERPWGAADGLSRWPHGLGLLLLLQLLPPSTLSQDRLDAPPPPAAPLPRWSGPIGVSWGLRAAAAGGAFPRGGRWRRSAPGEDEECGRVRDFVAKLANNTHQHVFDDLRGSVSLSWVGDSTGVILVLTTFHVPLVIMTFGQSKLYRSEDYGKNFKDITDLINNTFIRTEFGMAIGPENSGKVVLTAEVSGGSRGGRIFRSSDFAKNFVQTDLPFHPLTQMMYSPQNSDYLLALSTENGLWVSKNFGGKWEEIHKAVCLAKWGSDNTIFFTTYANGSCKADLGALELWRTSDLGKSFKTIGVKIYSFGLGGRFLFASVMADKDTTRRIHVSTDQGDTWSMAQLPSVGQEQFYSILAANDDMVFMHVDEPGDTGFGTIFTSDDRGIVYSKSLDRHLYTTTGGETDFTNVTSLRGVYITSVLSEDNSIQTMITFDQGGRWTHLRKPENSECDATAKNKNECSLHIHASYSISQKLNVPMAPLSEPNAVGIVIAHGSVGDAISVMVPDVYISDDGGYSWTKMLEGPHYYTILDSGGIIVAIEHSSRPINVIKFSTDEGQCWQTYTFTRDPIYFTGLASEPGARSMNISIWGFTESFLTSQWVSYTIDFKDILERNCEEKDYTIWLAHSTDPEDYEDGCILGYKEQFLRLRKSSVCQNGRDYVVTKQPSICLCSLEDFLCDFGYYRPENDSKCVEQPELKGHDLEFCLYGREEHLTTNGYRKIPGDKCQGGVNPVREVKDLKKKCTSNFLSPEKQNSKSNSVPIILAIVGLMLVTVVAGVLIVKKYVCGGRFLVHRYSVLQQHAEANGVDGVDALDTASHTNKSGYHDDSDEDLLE
UniProt Q7KZF4: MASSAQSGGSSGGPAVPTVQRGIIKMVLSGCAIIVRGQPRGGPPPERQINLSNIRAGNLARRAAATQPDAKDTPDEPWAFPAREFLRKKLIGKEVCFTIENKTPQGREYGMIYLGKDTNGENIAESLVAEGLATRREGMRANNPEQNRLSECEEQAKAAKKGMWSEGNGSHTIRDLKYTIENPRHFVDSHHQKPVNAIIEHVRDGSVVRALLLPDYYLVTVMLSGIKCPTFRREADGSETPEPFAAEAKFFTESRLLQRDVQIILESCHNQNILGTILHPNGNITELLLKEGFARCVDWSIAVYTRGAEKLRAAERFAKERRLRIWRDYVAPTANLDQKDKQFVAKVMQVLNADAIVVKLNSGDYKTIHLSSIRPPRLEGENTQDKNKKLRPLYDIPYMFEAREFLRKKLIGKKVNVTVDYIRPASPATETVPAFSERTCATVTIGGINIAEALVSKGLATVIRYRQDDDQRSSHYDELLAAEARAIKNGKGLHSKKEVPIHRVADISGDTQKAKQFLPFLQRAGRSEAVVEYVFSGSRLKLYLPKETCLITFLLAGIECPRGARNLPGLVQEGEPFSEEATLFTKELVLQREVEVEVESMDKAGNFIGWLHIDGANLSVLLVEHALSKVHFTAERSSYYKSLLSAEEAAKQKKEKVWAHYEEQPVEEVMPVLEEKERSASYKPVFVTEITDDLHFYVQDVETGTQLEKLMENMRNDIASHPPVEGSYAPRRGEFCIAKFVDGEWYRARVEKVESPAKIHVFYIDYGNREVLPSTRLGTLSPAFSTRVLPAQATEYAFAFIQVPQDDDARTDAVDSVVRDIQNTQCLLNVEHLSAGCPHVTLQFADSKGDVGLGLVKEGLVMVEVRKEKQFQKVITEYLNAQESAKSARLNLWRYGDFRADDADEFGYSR
UniProt O14745: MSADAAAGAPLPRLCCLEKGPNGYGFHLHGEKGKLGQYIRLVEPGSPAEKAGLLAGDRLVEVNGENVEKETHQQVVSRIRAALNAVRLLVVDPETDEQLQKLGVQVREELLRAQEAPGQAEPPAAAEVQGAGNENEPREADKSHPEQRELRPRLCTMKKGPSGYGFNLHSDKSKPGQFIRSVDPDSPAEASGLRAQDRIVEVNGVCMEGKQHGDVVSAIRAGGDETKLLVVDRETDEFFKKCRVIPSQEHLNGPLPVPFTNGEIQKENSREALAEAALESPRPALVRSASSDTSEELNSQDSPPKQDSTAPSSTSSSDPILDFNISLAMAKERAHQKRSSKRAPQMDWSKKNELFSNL
UniProt Q96T83: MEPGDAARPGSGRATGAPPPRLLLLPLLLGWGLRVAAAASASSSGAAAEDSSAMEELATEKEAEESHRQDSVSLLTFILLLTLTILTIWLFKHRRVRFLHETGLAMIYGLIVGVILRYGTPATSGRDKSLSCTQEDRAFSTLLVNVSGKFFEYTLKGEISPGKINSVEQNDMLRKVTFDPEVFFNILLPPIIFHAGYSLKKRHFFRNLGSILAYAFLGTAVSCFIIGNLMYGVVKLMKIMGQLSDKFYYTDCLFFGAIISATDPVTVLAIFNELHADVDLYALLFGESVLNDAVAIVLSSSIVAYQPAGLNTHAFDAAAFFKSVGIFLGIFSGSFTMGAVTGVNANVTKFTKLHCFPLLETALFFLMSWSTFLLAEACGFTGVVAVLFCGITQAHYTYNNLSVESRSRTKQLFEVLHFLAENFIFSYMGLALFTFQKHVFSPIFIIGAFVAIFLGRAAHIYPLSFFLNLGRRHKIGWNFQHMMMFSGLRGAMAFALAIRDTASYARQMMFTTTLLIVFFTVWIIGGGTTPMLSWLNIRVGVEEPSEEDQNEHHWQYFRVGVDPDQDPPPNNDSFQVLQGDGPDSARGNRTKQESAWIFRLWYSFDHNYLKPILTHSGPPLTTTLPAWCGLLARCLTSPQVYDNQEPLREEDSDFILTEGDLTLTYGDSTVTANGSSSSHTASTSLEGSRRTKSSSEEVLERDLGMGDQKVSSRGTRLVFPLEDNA
UniProt Q8IY92: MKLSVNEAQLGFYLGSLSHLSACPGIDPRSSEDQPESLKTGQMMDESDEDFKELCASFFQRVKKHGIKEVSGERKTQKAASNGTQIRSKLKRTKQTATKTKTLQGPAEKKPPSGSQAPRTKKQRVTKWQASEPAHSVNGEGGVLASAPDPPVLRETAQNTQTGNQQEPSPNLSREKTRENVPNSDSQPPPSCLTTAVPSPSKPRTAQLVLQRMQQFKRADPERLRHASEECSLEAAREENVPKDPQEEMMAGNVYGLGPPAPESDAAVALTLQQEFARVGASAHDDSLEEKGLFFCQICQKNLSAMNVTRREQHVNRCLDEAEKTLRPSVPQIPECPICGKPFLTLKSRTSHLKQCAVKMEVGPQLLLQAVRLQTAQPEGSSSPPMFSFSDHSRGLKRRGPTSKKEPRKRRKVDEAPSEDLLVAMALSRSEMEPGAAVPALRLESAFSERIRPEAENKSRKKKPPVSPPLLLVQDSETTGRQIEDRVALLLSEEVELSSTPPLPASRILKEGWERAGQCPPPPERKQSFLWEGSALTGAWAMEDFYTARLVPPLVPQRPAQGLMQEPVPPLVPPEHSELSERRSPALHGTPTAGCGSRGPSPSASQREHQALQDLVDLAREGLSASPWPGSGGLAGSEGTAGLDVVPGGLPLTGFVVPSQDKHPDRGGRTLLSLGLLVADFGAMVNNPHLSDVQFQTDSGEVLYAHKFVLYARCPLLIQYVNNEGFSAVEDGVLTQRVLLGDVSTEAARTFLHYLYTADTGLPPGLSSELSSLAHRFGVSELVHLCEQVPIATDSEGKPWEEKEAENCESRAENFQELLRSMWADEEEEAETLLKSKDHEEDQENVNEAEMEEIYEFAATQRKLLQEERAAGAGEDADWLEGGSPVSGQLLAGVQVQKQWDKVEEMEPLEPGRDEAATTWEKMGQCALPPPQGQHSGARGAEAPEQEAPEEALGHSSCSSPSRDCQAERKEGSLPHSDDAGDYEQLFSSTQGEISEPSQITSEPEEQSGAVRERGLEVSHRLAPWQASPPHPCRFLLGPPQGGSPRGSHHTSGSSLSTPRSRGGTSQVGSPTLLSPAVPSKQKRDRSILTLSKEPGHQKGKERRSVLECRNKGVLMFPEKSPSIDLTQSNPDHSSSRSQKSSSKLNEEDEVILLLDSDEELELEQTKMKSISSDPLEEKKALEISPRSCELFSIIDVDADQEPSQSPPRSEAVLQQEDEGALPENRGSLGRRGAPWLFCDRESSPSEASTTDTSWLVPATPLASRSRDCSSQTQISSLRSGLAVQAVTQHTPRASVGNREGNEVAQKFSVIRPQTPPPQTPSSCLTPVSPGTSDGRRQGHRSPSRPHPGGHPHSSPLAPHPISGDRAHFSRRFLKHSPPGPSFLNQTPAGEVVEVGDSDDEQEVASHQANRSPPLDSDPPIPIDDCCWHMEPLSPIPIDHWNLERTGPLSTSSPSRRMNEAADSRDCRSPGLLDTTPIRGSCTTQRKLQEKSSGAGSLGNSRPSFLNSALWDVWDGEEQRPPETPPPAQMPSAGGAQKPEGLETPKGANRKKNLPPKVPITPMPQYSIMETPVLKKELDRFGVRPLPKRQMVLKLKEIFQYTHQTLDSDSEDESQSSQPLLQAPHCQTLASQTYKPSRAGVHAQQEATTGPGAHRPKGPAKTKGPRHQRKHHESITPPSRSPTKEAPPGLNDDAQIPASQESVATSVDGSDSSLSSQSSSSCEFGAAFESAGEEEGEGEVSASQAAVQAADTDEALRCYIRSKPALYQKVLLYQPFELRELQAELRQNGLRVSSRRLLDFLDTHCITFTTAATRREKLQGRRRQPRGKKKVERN
UniProt Q96A46: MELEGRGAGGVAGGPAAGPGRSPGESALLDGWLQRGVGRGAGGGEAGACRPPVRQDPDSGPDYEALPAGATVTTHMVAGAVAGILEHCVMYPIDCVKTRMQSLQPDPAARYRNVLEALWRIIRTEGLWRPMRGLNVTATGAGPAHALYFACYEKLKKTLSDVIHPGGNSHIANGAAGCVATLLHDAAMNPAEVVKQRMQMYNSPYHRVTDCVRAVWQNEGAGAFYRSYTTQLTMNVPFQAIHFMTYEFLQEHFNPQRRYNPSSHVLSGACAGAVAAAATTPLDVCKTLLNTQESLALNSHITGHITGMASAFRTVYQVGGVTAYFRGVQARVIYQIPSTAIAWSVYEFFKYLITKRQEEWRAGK
UniProt P12236: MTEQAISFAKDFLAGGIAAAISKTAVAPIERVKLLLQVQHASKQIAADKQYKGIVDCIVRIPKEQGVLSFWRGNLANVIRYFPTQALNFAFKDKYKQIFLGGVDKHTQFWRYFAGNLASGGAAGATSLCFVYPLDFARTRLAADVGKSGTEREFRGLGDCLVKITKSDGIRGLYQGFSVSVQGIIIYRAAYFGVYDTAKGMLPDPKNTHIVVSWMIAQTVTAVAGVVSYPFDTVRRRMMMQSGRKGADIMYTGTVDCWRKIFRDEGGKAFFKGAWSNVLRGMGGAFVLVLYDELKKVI
UniProt Q6P1M0: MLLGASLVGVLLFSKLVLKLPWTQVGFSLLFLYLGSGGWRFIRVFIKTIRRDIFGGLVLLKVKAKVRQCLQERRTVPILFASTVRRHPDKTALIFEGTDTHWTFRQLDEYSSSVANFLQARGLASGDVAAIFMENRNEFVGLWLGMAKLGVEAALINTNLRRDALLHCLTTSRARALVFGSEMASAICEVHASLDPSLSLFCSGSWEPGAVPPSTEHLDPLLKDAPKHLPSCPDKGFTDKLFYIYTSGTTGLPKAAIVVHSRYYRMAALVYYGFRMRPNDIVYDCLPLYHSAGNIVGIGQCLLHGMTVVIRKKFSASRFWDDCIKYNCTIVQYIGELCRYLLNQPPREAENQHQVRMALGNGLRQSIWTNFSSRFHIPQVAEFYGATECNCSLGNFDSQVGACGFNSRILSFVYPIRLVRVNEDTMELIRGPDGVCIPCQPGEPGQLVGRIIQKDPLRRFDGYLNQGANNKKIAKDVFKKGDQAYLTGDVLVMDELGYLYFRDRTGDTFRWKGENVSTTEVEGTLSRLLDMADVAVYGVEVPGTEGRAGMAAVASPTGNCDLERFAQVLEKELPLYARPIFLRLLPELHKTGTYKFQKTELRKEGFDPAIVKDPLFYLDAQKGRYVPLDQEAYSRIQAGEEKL
UniProt Q92540, 345-365: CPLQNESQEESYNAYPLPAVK
UniProt Q9H2H9: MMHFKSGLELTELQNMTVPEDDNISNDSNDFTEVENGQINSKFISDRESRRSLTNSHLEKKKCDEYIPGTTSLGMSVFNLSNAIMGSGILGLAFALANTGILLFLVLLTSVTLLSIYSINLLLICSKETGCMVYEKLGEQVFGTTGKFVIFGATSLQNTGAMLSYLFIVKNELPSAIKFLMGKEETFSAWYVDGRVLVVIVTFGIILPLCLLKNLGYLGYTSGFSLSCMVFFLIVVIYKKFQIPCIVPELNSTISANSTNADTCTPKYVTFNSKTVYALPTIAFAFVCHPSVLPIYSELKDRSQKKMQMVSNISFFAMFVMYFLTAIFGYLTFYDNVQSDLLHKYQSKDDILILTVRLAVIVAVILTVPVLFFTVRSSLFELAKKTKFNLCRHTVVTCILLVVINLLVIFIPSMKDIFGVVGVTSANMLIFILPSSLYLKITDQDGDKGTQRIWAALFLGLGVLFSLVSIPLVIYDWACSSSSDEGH

Compound in the assay: ClCC(=O)N[C@H]1CCCc2ccccc12
The assay is described as follows: log2 mean competition ratio of IA-DTB cysteine labelling (DMSO/compound) (log2 ratio); higher = stronger cysteine engagement by compound. To be noted: treatment time: 4 h, cell line lysate: HEK293T. The procedure:
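IA-DTB competitive cysteine chemoproteomics in HEK293T RIPA lysate. Lysates were treated with compound 29 or 30 at 50 or 200 µM for 4 h, then IA-DTB (500 µM, 1 h), trypsin-digested, NeutrAvidin-enriched and analysed by diaPASEF. Competition ratio = intensity DMSO / intensity compound (n=4 treated, n=64 DMSO); binding: mean log2 CR ≥ 1 and p ≤ 0.05 plus QC filters. Target is the cysteine site.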

The other results are listed elsewhere or left out. The data scatter; read single values as rough.

Consider SLK C552, for which the “log2 mean competition ratio” value is -0.219 (50 µM) and -0.107 (200 µM).
For SORT1 C740 (UniProt Q99523) the same measures were -0.114 and 0.575.
The matching figures for SND1 C31 (UniProt Q7KZF4): 0.512 and -0.0604.
Take SLC47A1 C466: the “log2 mean competition ratio” value came to 0.615 (50 µM) and 0.198 (200 µM).
The matching figures for SLC9A3R2 C103 (UniProt Q15599): -0.192 and 0.158.
Take SLC9A3R1 C206 (UniProt O14745): the “log2 mean competition ratio” value reads like this: (50 µM) -0.0647; (200 µM) 0.0652.
The matching figures for SMURF2 C151: 0.22 and 0.414.
For SLC9A7 C132 (UniProt Q96T83) the same measures were -0.262 and 0.0202.
On to SLX4 C1269 (UniProt Q8IY92), for which the “log2 mean competition ratio” value (50 µM) is -0.42 and the “log2 mean competition ratio” value (200 µM) is -0.198.
For the target SLC25A28 C49 (UniProt Q96A46), the “log2 mean competition ratio” value (50 µM) was -0.406 and the “log2 mean competition ratio” value (200 µM) was -0.193.
For SOCS6 C342 (UniProt O14544) the same measures were -0.0573 and 0.2.
Consider SLC25A6 C160 (UniProt P12236), for which the “log2 mean competition ratio” value is, setting by setting: (50 µM) 0.354; (200 µM) 0.188.
Consider SLC27A4 C323 (UniProt Q6P1M0), for which the “log2 mean competition ratio” value by setting is: (50 µM) -0.212; (200 µM) -0.0876.
For SMG7 C345 (UniProt Q92540) the same measures were 0.442 and 0.162.
With SNTB2 C391 (UniProt Q13425), the “log2 mean competition ratio” value by setting is: (50 µM) -0.0652; (200 µM) 0.325.
For SKP2 C423 (UniProt Q13309) the same measures were 0.111 and -0.0177.
For SLC38A1 C131 (UniProt Q9H2H9) the same measures were 0.461 and 0.222.
